PubChem BioAssay AID743121, NCATS | 2013
Shown is one part, drawn at random, of about 26,000 reagents. Of all reagents, 167 (0.63%) got an active call. 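Calls are per gene from RSA p-values that are not deposited; an individual active-marked siRNA can sensitise only weakly.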 Not all columns of the deposit are shown. Reagent sequences are not shown.

Screen: 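Genes whose silencing strengthens cell killing by camptothecin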 (primary screen)
System: MDA-MB-231 cells, a human breast cancer line
Reagents: single siRNA against human genes, 20 nM siRNA (0.8 pmol per well)
Duration: 120 h (drug added 48 h after transfection, read 72 h later)
Challenge: camptothecin 20 nM (about EC30) for 72 h; vehicle 0.1% DMSO in parallel plates
Detection: 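CellTiter-Glo ATP signal, scaled to control siRNA as percent viability; sensitisation given as log2 of untreated divided by camptothecin-treated viability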
Reading the numbers: log2 vehicle/camptothecin viability: higher = stronger sensitisation to camptothecin
Rule for the call: 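Active genes have an RSA gene-level p-value below 0.001, computed from the ratios of their separate siRNAs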

KLK13 (kallikrein related peptidase 13) [SID164458740] scored log2 vehicle/camptothecin viability -0.334; inactive.
KLK13 (kallikrein related peptidase 13) [SID164458743] gave log2 vehicle/camptothecin viability -0.429; inactive.
KLK13 (kallikrein related peptidase 13) [SID164458744] gave log2 vehicle/camptothecin viability 0.134; inactive.
For KLK13 (kallikrein related peptidase 13) [SID164458745] the deposit lists log2 vehicle/camptothecin viability -0.391; inactive.
Silencing of WNK4 (WNK lysine deficient protein kinase 4) [SID164505795] gave: log2 vehicle/camptothecin viability -0.235; inactive.
WNK4 (WNK lysine deficient protein kinase 4) [SID164505798] showed log2 vehicle/camptothecin viability 0.305; inactive.
WNK4 (WNK lysine deficient protein kinase 4) [SID164505799] gave log2 vehicle/camptothecin viability 0.097; inactive.
WNK4 (WNK lysine deficient protein kinase 4) [SID164505801] scored log2 vehicle/camptothecin viability -0.23; inactive.
OR2W1 (olfactory receptor family 2 subfamily W member 1) [SID164460931] scored log2 vehicle/camptothecin viability -0.746; inactive.
Knock-down of OR2W1 (olfactory receptor family 2 subfamily W member 1) [SID164460933] resulted in: log2 vehicle/camptothecin viability 0.95; inactive.
OR2W1 (olfactory receptor family 2 subfamily W member 1) [SID164460935] scored log2 vehicle/camptothecin viability -0.148; inactive.
Against OR2W1 (olfactory receptor family 2 subfamily W member 1) [SID164460936], the values are log2 vehicle/camptothecin viability -0.333; inactive.
MAP3K11 (mitogen-activated protein kinase kinase kinase 11) [SID164375676] showed log2 vehicle/camptothecin viability -0.75; inactive.
MAP3K11 (mitogen-activated protein kinase kinase kinase 11) [SID164375677] scored log2 vehicle/camptothecin viability 1.01; inactive.
Knock-down of MAP3K11 (mitogen-activated protein kinase kinase kinase 11) [SID164375679] came out at: log2 vehicle/camptothecin viability -0.527; inactive.
Silencing of MAP3K11 (mitogen-activated protein kinase kinase kinase 11) [SID164375680] resulted in: log2 vehicle/camptothecin viability -0.821; inactive.
Against PTGER4P2-CDK2AP2P2 (PTGER4P2-CDK2AP2P2 readthrough, transcribed pseudogene) [SID174315932], the entry reads log2 vehicle/camptothecin viability -0.114; inactive.
Against PTGER4P2-CDK2AP2P2 (PTGER4P2-CDK2AP2P2 readthrough, transcribed pseudogene) [SID174315933] the deposit lists log2 vehicle/camptothecin viability -0.262; inactive.
PTGER4P2-CDK2AP2P2 (PTGER4P2-CDK2AP2P2 readthrough, transcribed pseudogene) [SID174315950] showed log2 vehicle/camptothecin viability -0.248; inactive.
For OVCH1 (ovochymase 1) [SID164658667], the entry reads log2 vehicle/camptothecin viability -0.48; inactive.
For OVCH1 (ovochymase 1) [SID164658669] the deposit lists log2 vehicle/camptothecin viability -0.283; inactive.
For OVCH1 (ovochymase 1) [SID164658670] the deposit lists log2 vehicle/camptothecin viability -0.509; inactive.
After knock-down of BTN3A2 (butyrophilin subfamily 3 member A2) [SID164415671] the results were log2 vehicle/camptothecin viability -0.313; inactive.
For BTN3A2 (butyrophilin subfamily 3 member A2) [SID164415675] the deposit lists log2 vehicle/camptothecin viability -0.125; inactive.
Knock-down of BTN3A2 (butyrophilin subfamily 3 member A2) [SID164415677] gave: log2 vehicle/camptothecin viability -0.321; inactive.
BTN3A2 (butyrophilin subfamily 3 member A2) [SID164415678] showed log2 vehicle/camptothecin viability -0.159; inactive.

Reformatted: results already given
| gene | PubChem SID | log2 vehicle/camptothecin viability | outcome |
| --- | --- | --- | --- |
| BTN3A2 (butyrophilin subfamily 3 member A2) | SID164415671 | -0.313 | inactive |
| BTN3A2 (butyrophilin subfamily 3 member A2) | SID164415675 | -0.125 | inactive |
